According to the supplement of paper PMC10849652:
The list shows a part of the results.

Protein sequences, listed by entry. Tags and fused reporters are not part of them. Lines headed by an entry give the natural chain unless they say otherwise; changes in a name come on top.
UniProt Q9UEY8: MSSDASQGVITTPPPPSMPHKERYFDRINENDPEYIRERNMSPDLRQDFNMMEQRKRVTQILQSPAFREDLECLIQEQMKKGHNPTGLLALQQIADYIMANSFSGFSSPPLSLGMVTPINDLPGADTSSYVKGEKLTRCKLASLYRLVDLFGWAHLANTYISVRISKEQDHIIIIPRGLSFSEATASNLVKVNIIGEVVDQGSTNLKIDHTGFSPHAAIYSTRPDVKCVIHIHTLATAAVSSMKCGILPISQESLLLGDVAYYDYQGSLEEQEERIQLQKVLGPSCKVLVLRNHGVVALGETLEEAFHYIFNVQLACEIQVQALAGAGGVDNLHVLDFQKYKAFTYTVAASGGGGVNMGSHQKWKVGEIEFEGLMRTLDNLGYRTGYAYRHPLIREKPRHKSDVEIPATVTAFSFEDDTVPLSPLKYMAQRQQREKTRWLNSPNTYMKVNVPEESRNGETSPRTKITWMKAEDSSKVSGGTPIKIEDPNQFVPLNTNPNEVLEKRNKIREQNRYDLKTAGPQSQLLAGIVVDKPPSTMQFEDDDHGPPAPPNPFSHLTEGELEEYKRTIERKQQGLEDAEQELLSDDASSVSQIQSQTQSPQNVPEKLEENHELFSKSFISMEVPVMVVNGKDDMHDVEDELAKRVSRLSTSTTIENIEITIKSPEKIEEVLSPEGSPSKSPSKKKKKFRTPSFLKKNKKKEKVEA
UniProt Q9NRZ5: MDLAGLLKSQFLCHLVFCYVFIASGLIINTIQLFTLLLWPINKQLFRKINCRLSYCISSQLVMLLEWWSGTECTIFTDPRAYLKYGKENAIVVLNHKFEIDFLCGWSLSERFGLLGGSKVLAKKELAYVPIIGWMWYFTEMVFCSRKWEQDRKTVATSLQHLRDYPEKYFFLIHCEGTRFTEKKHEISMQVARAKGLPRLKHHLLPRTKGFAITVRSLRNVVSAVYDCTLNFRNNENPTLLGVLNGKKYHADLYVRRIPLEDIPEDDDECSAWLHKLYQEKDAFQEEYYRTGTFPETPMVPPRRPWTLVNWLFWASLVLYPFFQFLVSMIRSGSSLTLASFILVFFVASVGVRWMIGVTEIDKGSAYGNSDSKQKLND
UniProt O75342: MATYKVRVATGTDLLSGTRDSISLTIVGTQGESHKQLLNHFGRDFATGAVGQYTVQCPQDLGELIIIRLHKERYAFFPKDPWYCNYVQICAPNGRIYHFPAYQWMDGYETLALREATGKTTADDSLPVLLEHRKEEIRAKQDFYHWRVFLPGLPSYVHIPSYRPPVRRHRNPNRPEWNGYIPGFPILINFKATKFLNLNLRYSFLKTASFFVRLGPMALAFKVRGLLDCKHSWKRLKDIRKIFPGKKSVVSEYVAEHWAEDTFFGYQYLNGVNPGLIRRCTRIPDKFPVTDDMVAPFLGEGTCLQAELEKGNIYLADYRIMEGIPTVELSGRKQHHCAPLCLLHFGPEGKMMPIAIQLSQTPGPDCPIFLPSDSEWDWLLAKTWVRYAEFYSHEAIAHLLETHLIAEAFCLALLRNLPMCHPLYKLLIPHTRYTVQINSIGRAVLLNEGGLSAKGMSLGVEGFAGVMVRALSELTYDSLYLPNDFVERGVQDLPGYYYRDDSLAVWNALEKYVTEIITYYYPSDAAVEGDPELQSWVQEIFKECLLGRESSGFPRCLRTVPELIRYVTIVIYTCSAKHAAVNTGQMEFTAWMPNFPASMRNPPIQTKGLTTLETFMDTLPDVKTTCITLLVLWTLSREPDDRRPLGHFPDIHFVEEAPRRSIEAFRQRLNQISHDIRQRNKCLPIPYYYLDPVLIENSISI
UniProt Q9BT30: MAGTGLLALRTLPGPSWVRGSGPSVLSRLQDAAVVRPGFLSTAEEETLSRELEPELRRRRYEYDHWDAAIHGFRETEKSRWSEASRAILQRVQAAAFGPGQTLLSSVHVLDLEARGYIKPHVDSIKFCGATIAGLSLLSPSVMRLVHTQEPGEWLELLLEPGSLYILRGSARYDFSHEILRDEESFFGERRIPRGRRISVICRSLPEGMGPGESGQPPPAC
UniProt Q9BS18, whole entry, looked up: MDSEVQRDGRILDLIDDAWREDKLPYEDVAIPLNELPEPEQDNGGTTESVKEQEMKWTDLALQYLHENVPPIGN
UniProt Q99996, whole entry, looked up: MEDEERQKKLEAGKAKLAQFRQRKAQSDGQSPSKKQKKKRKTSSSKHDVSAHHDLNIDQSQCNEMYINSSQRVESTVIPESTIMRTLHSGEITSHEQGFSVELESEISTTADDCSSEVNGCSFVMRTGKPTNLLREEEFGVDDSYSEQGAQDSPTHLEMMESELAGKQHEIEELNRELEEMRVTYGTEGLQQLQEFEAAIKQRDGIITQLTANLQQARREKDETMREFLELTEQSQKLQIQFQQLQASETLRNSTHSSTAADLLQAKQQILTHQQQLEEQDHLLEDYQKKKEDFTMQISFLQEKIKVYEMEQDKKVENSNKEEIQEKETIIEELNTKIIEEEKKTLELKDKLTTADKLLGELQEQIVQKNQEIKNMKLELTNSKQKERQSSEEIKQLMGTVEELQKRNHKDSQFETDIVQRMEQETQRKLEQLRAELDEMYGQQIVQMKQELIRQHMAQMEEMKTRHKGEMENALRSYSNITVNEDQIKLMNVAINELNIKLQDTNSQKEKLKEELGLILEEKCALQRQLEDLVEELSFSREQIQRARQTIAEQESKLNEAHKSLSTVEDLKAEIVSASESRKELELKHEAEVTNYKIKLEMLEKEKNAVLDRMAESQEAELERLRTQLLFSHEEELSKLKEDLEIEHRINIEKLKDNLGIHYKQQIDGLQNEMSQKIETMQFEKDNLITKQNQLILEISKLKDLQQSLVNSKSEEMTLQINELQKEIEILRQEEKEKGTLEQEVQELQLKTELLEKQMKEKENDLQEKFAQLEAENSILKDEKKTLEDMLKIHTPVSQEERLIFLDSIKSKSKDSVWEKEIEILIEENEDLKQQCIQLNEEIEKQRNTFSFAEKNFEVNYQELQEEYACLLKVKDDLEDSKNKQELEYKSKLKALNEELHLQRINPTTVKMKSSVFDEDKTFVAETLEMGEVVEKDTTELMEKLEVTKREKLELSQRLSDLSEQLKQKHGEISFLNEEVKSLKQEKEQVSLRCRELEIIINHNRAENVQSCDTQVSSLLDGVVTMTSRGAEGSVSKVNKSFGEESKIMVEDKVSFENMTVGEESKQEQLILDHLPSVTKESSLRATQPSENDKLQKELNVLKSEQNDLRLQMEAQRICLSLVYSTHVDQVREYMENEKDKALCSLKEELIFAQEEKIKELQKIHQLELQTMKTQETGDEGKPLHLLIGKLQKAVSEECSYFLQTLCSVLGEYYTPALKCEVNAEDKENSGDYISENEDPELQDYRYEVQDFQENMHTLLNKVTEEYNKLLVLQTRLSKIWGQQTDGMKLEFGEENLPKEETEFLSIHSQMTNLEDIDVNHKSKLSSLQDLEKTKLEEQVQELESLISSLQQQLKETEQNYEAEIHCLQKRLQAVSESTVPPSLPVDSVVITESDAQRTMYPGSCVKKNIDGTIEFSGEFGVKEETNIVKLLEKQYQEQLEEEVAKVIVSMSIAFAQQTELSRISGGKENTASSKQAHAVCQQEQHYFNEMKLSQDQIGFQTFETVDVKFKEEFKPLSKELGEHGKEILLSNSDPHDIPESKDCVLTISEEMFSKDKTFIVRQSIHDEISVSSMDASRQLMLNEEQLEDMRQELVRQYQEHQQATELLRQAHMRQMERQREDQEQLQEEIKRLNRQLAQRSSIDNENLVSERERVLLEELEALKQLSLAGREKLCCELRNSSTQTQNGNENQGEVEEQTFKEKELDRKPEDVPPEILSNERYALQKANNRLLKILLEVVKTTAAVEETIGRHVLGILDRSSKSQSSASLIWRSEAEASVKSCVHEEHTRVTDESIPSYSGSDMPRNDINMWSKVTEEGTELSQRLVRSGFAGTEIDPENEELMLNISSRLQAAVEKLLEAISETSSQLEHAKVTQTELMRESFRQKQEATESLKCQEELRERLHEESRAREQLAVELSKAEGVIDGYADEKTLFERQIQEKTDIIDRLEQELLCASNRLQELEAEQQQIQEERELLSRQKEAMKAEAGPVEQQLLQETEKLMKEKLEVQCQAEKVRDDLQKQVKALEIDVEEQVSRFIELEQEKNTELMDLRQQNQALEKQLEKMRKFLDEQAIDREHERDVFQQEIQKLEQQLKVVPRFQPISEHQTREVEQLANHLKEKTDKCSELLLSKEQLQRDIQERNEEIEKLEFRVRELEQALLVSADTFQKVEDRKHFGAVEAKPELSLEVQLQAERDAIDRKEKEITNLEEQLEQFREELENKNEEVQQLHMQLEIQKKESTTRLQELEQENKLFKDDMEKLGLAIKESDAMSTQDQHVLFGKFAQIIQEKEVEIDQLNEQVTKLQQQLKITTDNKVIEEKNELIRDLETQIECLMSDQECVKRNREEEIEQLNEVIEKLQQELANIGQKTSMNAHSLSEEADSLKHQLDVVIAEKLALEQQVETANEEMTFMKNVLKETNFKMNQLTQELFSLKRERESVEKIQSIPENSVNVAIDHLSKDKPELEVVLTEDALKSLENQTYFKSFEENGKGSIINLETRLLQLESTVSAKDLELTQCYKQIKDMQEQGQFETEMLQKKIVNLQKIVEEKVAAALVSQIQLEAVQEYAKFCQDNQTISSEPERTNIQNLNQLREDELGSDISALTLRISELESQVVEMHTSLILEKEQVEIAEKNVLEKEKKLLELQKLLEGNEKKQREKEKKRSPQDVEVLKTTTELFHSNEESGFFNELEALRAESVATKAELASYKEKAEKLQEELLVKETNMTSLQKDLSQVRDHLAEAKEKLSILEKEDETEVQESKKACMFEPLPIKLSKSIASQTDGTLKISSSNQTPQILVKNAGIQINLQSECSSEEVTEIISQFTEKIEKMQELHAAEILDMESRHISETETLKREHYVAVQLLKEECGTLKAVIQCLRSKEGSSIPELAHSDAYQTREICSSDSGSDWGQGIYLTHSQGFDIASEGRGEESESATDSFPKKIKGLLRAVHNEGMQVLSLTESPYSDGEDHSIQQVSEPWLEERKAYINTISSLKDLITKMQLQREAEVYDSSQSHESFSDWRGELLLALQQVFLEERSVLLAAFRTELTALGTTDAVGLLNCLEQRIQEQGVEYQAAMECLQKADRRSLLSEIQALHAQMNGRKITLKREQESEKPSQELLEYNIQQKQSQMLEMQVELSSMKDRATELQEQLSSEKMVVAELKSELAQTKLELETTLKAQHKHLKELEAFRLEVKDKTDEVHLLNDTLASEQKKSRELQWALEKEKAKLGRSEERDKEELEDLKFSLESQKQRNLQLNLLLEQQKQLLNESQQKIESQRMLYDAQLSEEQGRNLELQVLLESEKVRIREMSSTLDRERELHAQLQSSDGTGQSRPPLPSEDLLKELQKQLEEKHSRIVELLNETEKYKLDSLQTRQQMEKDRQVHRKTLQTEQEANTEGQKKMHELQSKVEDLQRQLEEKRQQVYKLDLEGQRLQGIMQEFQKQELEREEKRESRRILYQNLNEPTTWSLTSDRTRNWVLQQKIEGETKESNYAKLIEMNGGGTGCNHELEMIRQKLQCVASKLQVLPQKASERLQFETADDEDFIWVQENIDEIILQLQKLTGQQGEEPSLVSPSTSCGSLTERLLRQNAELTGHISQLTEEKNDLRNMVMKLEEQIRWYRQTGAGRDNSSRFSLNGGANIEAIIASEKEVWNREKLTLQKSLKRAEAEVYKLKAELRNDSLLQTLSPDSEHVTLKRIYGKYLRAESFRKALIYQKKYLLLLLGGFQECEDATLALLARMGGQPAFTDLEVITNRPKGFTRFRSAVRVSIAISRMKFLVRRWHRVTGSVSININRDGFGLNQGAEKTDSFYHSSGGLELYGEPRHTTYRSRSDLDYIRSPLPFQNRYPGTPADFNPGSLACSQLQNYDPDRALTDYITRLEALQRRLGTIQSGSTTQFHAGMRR
UniProt Q9NVV5: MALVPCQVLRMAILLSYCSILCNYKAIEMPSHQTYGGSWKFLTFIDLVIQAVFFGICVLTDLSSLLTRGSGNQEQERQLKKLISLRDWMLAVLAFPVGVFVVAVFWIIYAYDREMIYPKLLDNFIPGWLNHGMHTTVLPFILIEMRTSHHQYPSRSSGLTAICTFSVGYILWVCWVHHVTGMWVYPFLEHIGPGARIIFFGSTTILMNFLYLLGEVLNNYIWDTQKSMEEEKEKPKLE

How the values were obtained:
Experiment in all cases: log2 fold change, soluble protein after heating vs DMSO (PISA); higher = thermal stabilisation; K562 cells, 10 uM, 30 min; active = over 0.2 and 3.5 SD of the protein, either way, in both replicates (recomputed)
[1] = compound: C/C(=N\NC(=O)C1=CC(=CC=C1)S(=O)(=O)N2CCOCC2)/C3=C(C=CC(=C3)Cl)O
How it was run: (§1)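 Quantification of soluble protein used TMTpro 16plex LC-MS/MS, with channel sums equalised. Samples were the supernatant after 21,000xg for 90 min of pooled aliquots from K562 cells (2×10^6 cells/mL) treated with 10 μM compound for 30 min, heated for 3 min over 48°C-58°C, and extracted in PBS with 0.5% NP-40 at 4°C. Values, from duplicates, describe thermal stability against control samples on a log2 fold-change scale.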

[2] = compound: C1=CC(=C(C=C1Cl)C2=NC3=NC=CN=C3C(=N2)NC4=CC=NC=C4)F
How it was run: as §1

[3] = compound: C1=CC2=C(C=CC(=C2)/C=C\3/C(=O)NC(=NCC4=CC=CS4)S3)N=C1
How it was run: as §1

[4] = compound: C1=CC2=NC=CN=C2C=C1/C=C/3\C(=O)NC(=O)S3
How it was run: as §1

[5] = compound: C1=CC=C(C=C1)C2=NC(=C(N2)C3=CC=NC=C3)C4=CC(=C(C=C4)Cl)O
How it was run: as §1

[6] = compound: C1=CC=C2C(=C1)C3=NNC4=CC=CC(=C43)C2=O
How it was run: as §1

[7] = compound: C1CCN(C1)C(=O)NC2=CC=CC(=C2)NC3=NC=C(C(=N3)NCCC4=CN=CN4)Br
How it was run: as §1

[8] = compound: C1CN(CCC1(CC2=CC=C(C=C2)Cl)N)C3=NC=NC4=C3C=CN4
How it was run: as §1

erlotinib = compound: C#Cc1cccc(Nc2ncnc3cc(OCCOC)c(OCCOC)cc23)c1 [erlotinib]
How it was run: as §1

[9] = compound: C1=CC(=CC=C1C2=NC3=C(N2)C=C(C=C3)C(=O)N)OC4=CC=C(C=C4)Cl
How it was run: as §1

Measured: log2 fold change

ALDOC (UniProt J3QKP5)
inactive: [1] -0.228 | [2] -0.175 | [3] 0.208 | [4] -0.27 | [5] -0.235 | [6] -0.322 | [7] 0.263 | [8] -0.015

AGAP1 (UniProt Q9UPQ3)
inactive: erlotinib 0.014 | [9] -0.002 | [5] -0.102

ADD3 isoform 2 (UniProt Q9UEY8)
inactive: [1] 0.171 | [2] -0.049 | [3] 0.057 | [5] 0.009 | [6] 0.047 | [7] -0.016 | [8] 0.034

AGPAT4 (UniProt Q9NRZ5)
inactive: erlotinib -0.047 | [9] -0.072 | [4] 0.042 | [5] 0.057 | [7] -0.115 | [8] -0.022

ALOX12B (UniProt O75342)
inactive: [1] 0.038 | [3] 0.226 | [4] 0.143 | [5] -0.749 | [6] -0.203 | [7] -0.229 | [8] -0.401

ALKBH7 (UniProt Q9BT30)
inactive: [5] -0.196

ANAPC13 (UniProt Q9BS18)
inactive: [2] -0.343

AKAP9 isoform 6 (UniProt Q99996)
inactive: [2] 0.332 | [5] -0.12

AIG1 (UniProt Q9NVV5)
inactive: [1] -0.062 | [3] 0.165 | [6] -0.096 | [7] 0.099 | [8] 0.055
